Measurements from PubChem BioAssay AID2685 (National Center for Advancing Translational Sciences (NCATS), 2010).
The list shows a part of the results. Further columns of the screen follow, without active or inactive calls. The list favours compounds with an active or inconclusive main result. Potencies come from curve fits of mixed quality, noted in brackets.

Experiment: qHTS Assay for Lipid Storage Modulators in Drosophila S3 Cells;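 as to cell number change: cells counted by Cell Tracker Red CMTPX staining in the red channel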
Conditions: BODIPY lipid droplet fluorescence, 18-24 h; for cell number change: measured here: cell count max response, cells fed with added oleic acid
Method in brief: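 Drosophila S3 cells got compounds at several concentrations plus oleic acid (400 uM solution). Laser-scanning cytometry with 488 nm excitation read lipid droplets at 500-530 nm and cells at 575-640 nm. Percent activity was relative to 20 uM Triacsin C.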

[1] = measured here: cell number channel AC50, cells fed with added oleic acid
[2] = measured here: lipid fluorescence (Fed channel) AC50, cells fed with added oleic acid

SMILES | cell number change | AC50 [1] | AC50 [2]
CCc1ccc(/C=C(/C#N)C(N)=S)s1 | 22% | – | –
COC(=O)CCCNC(=O)OCc1ccc([N+](=O)[O-])cc1 | 80.6% | 18.4 µM [rising, single point] | –
Cc1ccc(NCc2nc3ccccc3n2C)cc1C | -12% | – | 5.8 µM [rising, single point]
CC(C)c1ccc(NC(=O)COC(=O)C2CCCCC2)cc1 | 8.96% | – | 32.6 µM [rising, single point]
COc1cc(NC(=O)COc2ccc(Br)cc2)ccc1NC(=O)C(C)C | -47.4% | 29.1 µM [falling, single point] | –
CCOc1ccc(OCC(=O)NCCS(=O)(=O)N2CCN(c3ccc(F)cc3)CC2)cc1 | 8.87% | – | 23.1 µM [rising, partial curve, poor fit]
CCOC(=O)/C(N=Nc1ccc2c(c1)OCO2)=C(\C)O | -8.04% | – | –
CCCc1cc(C(=O)N(C)CC(=O)Nc2ccc(OCC)c(OCC)c2)sc1C | – | 1.64 µM [rising, partial curve, poor fit] | –
CC1=NNC(=O)C1Oc1ccccc1 (configuration not stated) | 16.8% | – | 6.51 µM [falling, single point]
Cc1ccc(-c2nc(N)n(C(=O)c3cccnc3)n2)cc1 | 74.5% | 16.4 µM [rising, single point] | 0.206 µM [rising, full curve, poor fit]
CCOc1ccc(NC(=O)CC2C(=O)Nc3ccccc3N2C(=O)c2ccccc2)cc1 (configuration not stated) | 17.1% | – | 0.00461 µM [rising, full curve, poor fit]
c1ccc(CN(Cc2ccccc2)c2nn[nH]n2)cc1 | – | 0.116 µM [rising, full curve, poor fit] | 0.103 µM [rising, full curve, poor fit]
Cn1c(=O)c2c(nc(SCC(=O)NC3CCCC3)n2C)n(C)c1=O | -20.6% | – | 0.231 µM [rising, partial curve, poor fit]
Cc1ccc(S(=O)(=O)NCc2ccccc2)cc1C(=O)NCC(C)(C)N1CCOCC1 | – | – | 0.291 µM [falling, partial curve, poor fit]
Cc1ccc(NC(=O)CN(C)C(=O)COC(=O)c2nccnc2N)cc1 | 36.2% | 29.1 µM [rising, single point] | –
Clc1ccc2c(c1)c1cc(Cl)ccc1n2CN1CCOCC1 | -72.1% | 25.9 µM [falling, partial curve, poor fit] | 25.9 µM [falling, partial curve]
O=C(COc1cccc2cccnc12)N/N=C1\SCC(=O)N1Cc1ccccc1 | – | 2.31 µM [rising, partial curve] | 3.66 µM [rising, full curve]
CCOC(=O)c1c(NC(=O)c2ccc(Cl)s2)sc(C)c1C | – | 0.231 µM [rising, partial curve, poor fit] | –
Cc1ccc(C(=O)O)c(C(=O)Nc2nc(C)cs2)c1 | -8.11% | 0.0146 µM [falling, full curve] | 0.146 µM [falling, full curve, poor fit]

SMILES | cell number change | AC50 [1] | AC50 [2]
CCCCOc1ccc(NC(=O)CCSc2nccn2C)cc1 | 25.9% | – | 1.16 µM [rising, full curve, poor fit]
Cn1[nH]c(-c2ccccc2)c(/C=N/O)c1=O | 7.74% | – | 0.731 µM [rising, partial curve, poor fit]
CCOC(=O)CN1C(=O)C(Sc2n[nH]c(-c3cccc(C)c3)n2)CCc2ccccc21 (configuration not stated) | -13.5% | – | 16.4 µM [falling, single point]
CCN(CC)C(=O)CCCc1c[nH]c2ccccc12 | -52.6% | 1.84 µM [falling, partial curve] | –
COc1cccc(OC)c1C(=O)NCCN1CCN(C(=O)c2c(OC)cccc2OC)CC1 | -4.23% | – | 0.103 µM [falling, full curve, poor fit]
CCOC(=O)CNC(=O)CSc1nccn1Cc1ccco1 | 10.8% | – | –
CC1CN(c2ccc([N+](=O)[O-])c(NCCOc3ccc(Cl)cc3)c2)CC(C)N1 (configuration not stated) | -24.7% | – | 29.1 µM [rising, single point]
C=CCn1c(C)c(C(=O)OCC)c2cc(O)c3ccccc3c21 | 0.709% | – | 3.66 µM [falling, full curve, poor fit]
COCCCNC(=O)c1ccc(Cn2c(=O)c3ccccc3n(CC(=O)NCCc3ccc(OC)c(OC)c3)c2=O)cc1 | -3.76% | 0.461 µM [falling, full curve, poor fit] | –
COc1cc(OC)nc(-n2ncc(Br)c(Br)c2=O)n1 | -81.1% | 14.6 µM [falling, partial curve] | 5.8 µM [falling, partial curve]
COc1ccccc1Nc1nc(-c2cccc([N+](=O)[O-])c2)cs1 | 4.21% | 3.66 µM [rising, single point] | 29.1 µM [rising, single point]
CNC(=O)C1(C)C=CCN1C(=O)c1ccccc1 (configuration not stated) | -15.8% | – | 0.82 µM [falling, full curve, poor fit]
COC(=O)CSc1nc2c(c(=O)n(C)c(=O)n2C)n1CCC(C)C | -55.1% | 29.1 µM [falling, single point] | 29.1 µM [falling, single point]
O=C(CNC(=O)c1ccc(Br)cc1)NC1=NCCS1 | -10.5% | – | 0.13 µM [falling, partial curve, poor fit]
CCCN1C=CC(=C/C=C(\C#N)C(=O)OCC)C=C1 | -76.3% | 29.1 µM [falling, single point] | 29.1 µM [falling, single point]
CN1CCCCCC1=NC1=C(C#N)CCCC1 | -32.6% | 4.11 µM [falling, full curve] | 9.2 µM [falling, partial curve]
CCc1nnc(NC(=O)CSc2nnc(CNc3ccc(Cl)cc3)o2)s1 | 12.8% | – | 0.82 µM [falling, full curve, poor fit]
CCOC(=O)N1CCC(Nc2c(NCCCN(CC)CC)c(=O)c2=O)CC1 | 17.9% | 4.11 µM [rising, partial curve, poor fit] | 0.731 µM [rising, partial curve, poor fit]

Given tab-delimited: entries from further up.
SMILES	cell number change	AC50 [1]	AC50 [2]
CCCCOc1ccc(NC(=O)CCSc2nccn2C)cc1	25.9%	–	1.16 µM [rising, full curve, poor fit]
COc1cc(OC)nc(-n2ncc(Br)c(Br)c2=O)n1	-81.1%	14.6 µM [falling, partial curve]	5.8 µM [falling, partial curve]
